Source: the supplement of paper PMC12823440, “Inhibitors supercharge kinase turnover through native proteolytic circuits” (Nature, 2025)
Counter-ions that a name gives are not always drawn. Some of the results follow. Hit calls seldom repeat between salt and free forms of one compound.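 Kinases were expressed as nanoluciferase fusions in K562 cells and luminescence was read every 4 h between 2 and 18 h as percent of control, DMSO set to 100% and a positive control to 0%. A time point counts as decreased when the signal drops significantly (2 sigma). The hit call is the authors' own, does not follow from the count of time points alone, and its rule is not shown.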

Chains of the proteins cited; added tags and fusions are not shown. Lines headed by an entry give the natural chain unless they say otherwise; changes in a name come on top.
UniProt Q9BUB5: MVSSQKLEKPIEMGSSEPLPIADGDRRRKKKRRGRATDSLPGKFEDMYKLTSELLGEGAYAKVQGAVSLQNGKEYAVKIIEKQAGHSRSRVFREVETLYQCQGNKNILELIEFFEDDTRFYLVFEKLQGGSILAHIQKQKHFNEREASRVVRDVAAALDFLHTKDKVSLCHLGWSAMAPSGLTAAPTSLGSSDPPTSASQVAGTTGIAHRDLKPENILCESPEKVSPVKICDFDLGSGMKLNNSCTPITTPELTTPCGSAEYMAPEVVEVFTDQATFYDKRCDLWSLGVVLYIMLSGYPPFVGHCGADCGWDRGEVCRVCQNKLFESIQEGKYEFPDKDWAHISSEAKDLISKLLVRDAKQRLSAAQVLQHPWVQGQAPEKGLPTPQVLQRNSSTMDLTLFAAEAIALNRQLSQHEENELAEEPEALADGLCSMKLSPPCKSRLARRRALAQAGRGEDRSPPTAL
UniProt Q16620, whole entry, looked up: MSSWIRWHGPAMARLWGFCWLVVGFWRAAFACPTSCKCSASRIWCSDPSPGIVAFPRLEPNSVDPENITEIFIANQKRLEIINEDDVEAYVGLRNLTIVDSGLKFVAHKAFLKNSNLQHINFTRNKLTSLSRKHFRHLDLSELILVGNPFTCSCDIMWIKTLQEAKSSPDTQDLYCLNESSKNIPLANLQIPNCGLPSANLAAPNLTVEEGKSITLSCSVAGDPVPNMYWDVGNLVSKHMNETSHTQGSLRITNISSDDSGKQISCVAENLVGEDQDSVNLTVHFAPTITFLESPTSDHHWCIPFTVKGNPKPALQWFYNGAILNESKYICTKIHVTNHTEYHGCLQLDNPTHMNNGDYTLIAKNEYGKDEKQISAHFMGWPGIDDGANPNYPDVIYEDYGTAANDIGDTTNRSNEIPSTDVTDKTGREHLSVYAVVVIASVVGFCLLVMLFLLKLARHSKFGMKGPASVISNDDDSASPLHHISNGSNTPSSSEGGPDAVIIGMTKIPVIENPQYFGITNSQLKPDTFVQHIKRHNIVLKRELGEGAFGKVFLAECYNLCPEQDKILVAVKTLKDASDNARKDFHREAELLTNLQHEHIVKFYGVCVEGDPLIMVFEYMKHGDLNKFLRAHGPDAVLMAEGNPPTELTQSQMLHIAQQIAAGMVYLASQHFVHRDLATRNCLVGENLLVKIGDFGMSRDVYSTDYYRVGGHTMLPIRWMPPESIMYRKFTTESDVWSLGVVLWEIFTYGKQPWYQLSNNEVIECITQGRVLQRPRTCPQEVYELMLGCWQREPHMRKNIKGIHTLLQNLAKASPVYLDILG

The compounds below were run against MKNK1 (UniProt Q9BUB5) (assay: kinase-Nluc reporter destabilization hit call (1 = scored as downregulated) (binary); higher = compound decreases kinase abundance). Conditions: K562; 2-18 h.

kinase-Nluc reporter destabilization hit call, inactive:
CC(=O)Nc1nc(C)c(-c2nc(N3CCCC(O)C3)no2)s1 (configuration not stated) (10 µM) 0
CCc1ccc(C(=O)COc2ccc(CC3SC(=O)NC3=O)cc2)nc1 (configuration not stated) (10 µM) 0
NC(=O)c1ccc(-c2cnn3ccc(NCc4cccnc4)nc23)cc1 (2.5 µM) 0
Nc1[nH]c(=O)nc2c1ncn2[C@@H]1O[C@H](CO)[C@@H](O)[C@H]1O [Crotonoside] (10 µM) 0
CC1(COc2ccc3c(c2)ncn3-c2ccc3cccc(N4CCC(N)CC4)c3n2)COC1 [Crenolanib] (2.5 µM) 0
CSc1ccc(CN2CCCC(Nc3ccc4[nH]ncc4c3)C2)cc1 (configuration not stated) [Rho-Kinase-IN-1] (10 µM) 0
N=C(N)NC(=N)NCCc1ccccc1 [Phenformin (hydrochloride)] (10 µM) 0
C=C(F)C(=O)N1CCN(c2nc(OC[C@@H]3CCCN3C)nc3c2CCN(c2cccc4cccc(Cl)c24)C3)C[C@@H]1CC#N (2.5 µM) 0

What follows are compounds tested against NTRK2 (UniProt Q16620) in the same assay as above. Conditions: K562; 2-18 h.

kinase-Nluc reporter destabilization hit call, inactive:
CN(C)c1nc2c(Br)c(Br)c(Br)c(Br)c2n1CC(=O)O (10 µM) 0
COc1cc(N2CCC(N(C)C)CC2)ccc1Nc1ncc(Cl)c(Nc2ccccc2P(C)(C)=O)n1 (2.5 µM) 0
CC(C)C[C@H](NC(=O)[C@H](CCCCN)NC(=O)[C@H](CO)NC(=O)[C@@H](N)CC(C)C)C(N)=O [LSKL, Inhibitor of Thrombospondin (TSP-1) (TFA)] (10 µM) 0
O=C(Nc1ccc(Cl)c(Cl)c1)Nc1ccc2nnsc2c1 (10 µM) 0
CC(C)Oc1ccc(-c2cnc3c(-c4ccnc5ccccc45)cnn3c2)cc1 (10 µM) 0
O=C(CCCCCn1cc(Nc2ncc(Cl)c(Nc3ccc(Cl)cc3)n2)cn1)NO (2.5 µM) 0
CC(=O)NCCc1c[nH]c2ccc(O)cc12 [N-Acetyl-5-hydroxytryptamine] (10 µM) 0
O=C(c1ccc(Nc2nccc(-c3cc4ccccc4s3)n2)cc1)N1CCC(N2CCCC2)CC1 (2.5 µM) 0
C=CC(=O)N1CCC[C@@H](n2nc(C(=O)Nc3ccc(CC(=O)N(C)C)c(C)c3C)c3c(N)ncnc32)C1 (10 µM) 0
CC(CCc1ccccn1)(CCc1ccccn1)C(=O)c1ccccc1 (10 µM) 0
CC[C@@H]1[C@H](F)C(=O)N[C@@H]1COc1nccc2cc(C(N)=O)c(OC)cc12 (10 µM) 0
Nc1cc(C(F)F)c(-c2nc(N3C4CCC3COC4)nc(N3C4CCC3COC4)n2)cn1 (2.5 µM) 0
Oc1ccccc1C(=S)N1CCCC1 (10 µM) 0
COc1ccc(-n2c(C)c([N+](=O)[O-])c3ccc(O)cc32)cc1 (10 µM) 0
CN(C)Cc1cccc(N=C(c2ccccc2)c2c(O)[nH]c3cc(C(N)=O)ccc23)c1 (10 µM) 0
CCCCNC(=N)NC(=N)N [Buformin (hydrochloride)] (2.5 µM) 0
O=c1ccoc2cc(O)ccc12 [7-Hydroxy-4H-chromen-4-one] (10 µM) 0
C=CC(=O)Nc1cccc(-n2c(=O)cc(C)c3cnc(Nc4ccc(OCCN(C)C)cc4OC)nc32)c1 (10 µM) 0
O=c1[nH]ccc2cc(OC3CCNCC3)ccc12 (10 µM) 0
CCCCOc1ccc(CC/C=C2\SC(=O)N(CCN)C2=O)cc1 [K145 (hydrochloride)] (2.5 µM) 0
CC(C)(O)[C@@H]1CC[C@](C)([C@H]2[C@@H](O)C[C@@]3(C)[C@@H]4C[C@H](O[C@@H]5O[C@H](CO)[C@@H](O)[C@H](O)[C@H]5O)[C@H]5C(C)(C)[C@@H](O[C@@H]6OC[C@@H](O)[C@H](O)[C@H]6O[C@@H]6O[C@H](CO)[C@@H](O)[C@H](O)[C@H]6O)CC[C@@]56C[C@@]46CC[C@]23C)O1 [Astragaloside VI] (10 µM) 0
O=C1NC(=O)C(c2cn(-c3ccccc3)nc2-c2ccc(F)cc2)N1 (configuration not stated) (10 µM) 0
C[C@@H]1COCCN1c1cc(C2([S@](C)(=N)=O)CC2)nc(-c2cc[nH]c3nccc2-3)n1 [Ceralasertib] (2.5 µM) 0
CN(C)Cc1cccc(N=C(c2ccccc2)c2c(O)[nH]c3cc(C(=O)N(C)C)ccc23)c1 (10 µM) 0
CN1CCN(CCCNc2ncc(Cl)c(-c3cc4c(C(=O)NC5CC5)cccc4s3)n2)CC1 (10 µM) 0
CC[C@H](Nc1ncnc2[nH]cnc12)c1oc2ccccc2c(=O)c1-c1cccc(F)c1 [Tenalisib] (10 µM) 0
O=C1NC(=O)C(c2cnc3ccccn23)=C1c1cn2c3c(cc(F)cc13)CN(C(=O)N1CCCCC1)CC2 (2.5 µM) 0
COc1c(C)c(C(=O)c2ccc(N)c(C(=O)O)c2)n2ccccc12 (10 µM) 0
N#Cc1ccc(-c2c(-c3ncn[nH]3)sc(N3CCOCC3)c2C#N)c(F)c1 (10 µM) 0
N#C/C(=C(/N)Sc1ccc(N)cc1)c1ccccc1C(F)(F)F (10 µM) 0
O=C(Nc1ccc(Cl)cc1)C1CCCN(C(=O)c2cccc(-c3ccco3)c2)C1 (configuration not stated) (2.5 µM) 0
CC(=O)Nc1nc(C)c(-c2nc(N3CCCC(O)C3)no2)s1 (configuration not stated) (10 µM) 0
CCc1ccc(C(=O)COc2ccc(CC3SC(=O)NC3=O)cc2)nc1 (configuration not stated) (10 µM) 0
NC(=O)c1ccc(-c2cnn3ccc(NCc4cccnc4)nc23)cc1 (2.5 µM) 0
Nc1[nH]c(=O)nc2c1ncn2[C@@H]1O[C@H](CO)[C@@H](O)[C@H]1O [Crotonoside] (10 µM) 0
CC1(COc2ccc3c(c2)ncn3-c2ccc3cccc(N4CCC(N)CC4)c3n2)COC1 [Crenolanib] (2.5 µM) 0
CSc1ccc(CN2CCCC(Nc3ccc4[nH]ncc4c3)C2)cc1 (configuration not stated) [Rho-Kinase-IN-1] (10 µM) 0
N=C(N)NC(=N)NCCc1ccccc1 [Phenformin (hydrochloride)] (10 µM) 0
C=C(F)C(=O)N1CCN(c2nc(OC[C@@H]3CCCN3C)nc3c2CCN(c2cccc4cccc(Cl)c24)C3)C[C@@H]1CC#N (2.5 µM) 0
